Measured values from article PMC9911733.
Results are given in words; binding and its absence hold for the method and conditions named. Some entries that bind do so weakly or less than the wild type.

By UniProt entry, the sequences of proteins in these tests, tags left out. Residues count along the entry.
UniProt P08101, residues 30-330: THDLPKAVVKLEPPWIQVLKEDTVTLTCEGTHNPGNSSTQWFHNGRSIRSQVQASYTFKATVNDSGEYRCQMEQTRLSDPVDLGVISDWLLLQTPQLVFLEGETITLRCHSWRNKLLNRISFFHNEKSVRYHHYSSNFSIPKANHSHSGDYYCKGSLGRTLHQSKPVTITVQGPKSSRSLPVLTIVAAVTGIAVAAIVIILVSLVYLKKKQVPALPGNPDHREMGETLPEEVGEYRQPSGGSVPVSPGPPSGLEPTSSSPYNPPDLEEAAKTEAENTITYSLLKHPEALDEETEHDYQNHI

Target: T1, recombinant mouse fibrinogen-like 2 (rmFGL2), conjugated with biotin (mouse) (UniProt P12804)
T1 sequence (chain, biotin (conjugated; site not stated)): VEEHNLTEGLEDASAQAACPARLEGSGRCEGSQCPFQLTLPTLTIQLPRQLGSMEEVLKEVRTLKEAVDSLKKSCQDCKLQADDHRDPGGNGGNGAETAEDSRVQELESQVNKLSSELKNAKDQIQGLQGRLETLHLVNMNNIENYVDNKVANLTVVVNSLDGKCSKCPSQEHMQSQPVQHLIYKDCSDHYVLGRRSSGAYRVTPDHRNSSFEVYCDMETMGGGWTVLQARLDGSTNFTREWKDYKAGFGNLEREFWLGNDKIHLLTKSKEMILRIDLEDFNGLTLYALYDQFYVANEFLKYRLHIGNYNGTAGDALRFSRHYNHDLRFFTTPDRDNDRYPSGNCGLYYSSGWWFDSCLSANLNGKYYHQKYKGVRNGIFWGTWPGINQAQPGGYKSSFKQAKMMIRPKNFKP
Assay: microfluidics slide chip cell binding assay; biotin-conjugated rmFGL2 (4 mg/mL, 1 h) anchored on a streptavidin-coated PDMS slide chip; T cells passed through at 1.8 mL per hour; chip imaged by fluorescence microscopy; WT against FcγRIIB-/- T cells; only the target purified

In the case of “FcγRIIB on mouse T cells (from UniProt P08101 30-330) (receptor)”, the binding was “binds”.
